Data taken from ChEMBL document CHEMBL3988442, “University of Dundee, Small-Polar-MMV Screening Library” (2021).

Amino acid sequences for entries named in this document (tags omitted). Residues count along the entry.
UniProt A4I591, 1-473: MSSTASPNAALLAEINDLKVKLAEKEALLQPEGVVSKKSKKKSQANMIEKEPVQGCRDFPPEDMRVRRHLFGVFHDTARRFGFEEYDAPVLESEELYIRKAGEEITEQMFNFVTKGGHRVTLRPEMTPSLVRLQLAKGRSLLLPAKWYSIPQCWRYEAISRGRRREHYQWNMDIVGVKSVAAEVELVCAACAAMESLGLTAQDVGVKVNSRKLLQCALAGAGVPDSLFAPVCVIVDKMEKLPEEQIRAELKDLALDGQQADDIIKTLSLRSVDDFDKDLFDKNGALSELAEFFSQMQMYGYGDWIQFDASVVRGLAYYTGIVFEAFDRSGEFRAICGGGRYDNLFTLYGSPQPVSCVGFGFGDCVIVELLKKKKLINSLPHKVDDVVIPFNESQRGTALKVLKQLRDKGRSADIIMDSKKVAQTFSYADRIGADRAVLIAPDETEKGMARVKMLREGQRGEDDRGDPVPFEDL
UniProt I6X8D2, whole entry: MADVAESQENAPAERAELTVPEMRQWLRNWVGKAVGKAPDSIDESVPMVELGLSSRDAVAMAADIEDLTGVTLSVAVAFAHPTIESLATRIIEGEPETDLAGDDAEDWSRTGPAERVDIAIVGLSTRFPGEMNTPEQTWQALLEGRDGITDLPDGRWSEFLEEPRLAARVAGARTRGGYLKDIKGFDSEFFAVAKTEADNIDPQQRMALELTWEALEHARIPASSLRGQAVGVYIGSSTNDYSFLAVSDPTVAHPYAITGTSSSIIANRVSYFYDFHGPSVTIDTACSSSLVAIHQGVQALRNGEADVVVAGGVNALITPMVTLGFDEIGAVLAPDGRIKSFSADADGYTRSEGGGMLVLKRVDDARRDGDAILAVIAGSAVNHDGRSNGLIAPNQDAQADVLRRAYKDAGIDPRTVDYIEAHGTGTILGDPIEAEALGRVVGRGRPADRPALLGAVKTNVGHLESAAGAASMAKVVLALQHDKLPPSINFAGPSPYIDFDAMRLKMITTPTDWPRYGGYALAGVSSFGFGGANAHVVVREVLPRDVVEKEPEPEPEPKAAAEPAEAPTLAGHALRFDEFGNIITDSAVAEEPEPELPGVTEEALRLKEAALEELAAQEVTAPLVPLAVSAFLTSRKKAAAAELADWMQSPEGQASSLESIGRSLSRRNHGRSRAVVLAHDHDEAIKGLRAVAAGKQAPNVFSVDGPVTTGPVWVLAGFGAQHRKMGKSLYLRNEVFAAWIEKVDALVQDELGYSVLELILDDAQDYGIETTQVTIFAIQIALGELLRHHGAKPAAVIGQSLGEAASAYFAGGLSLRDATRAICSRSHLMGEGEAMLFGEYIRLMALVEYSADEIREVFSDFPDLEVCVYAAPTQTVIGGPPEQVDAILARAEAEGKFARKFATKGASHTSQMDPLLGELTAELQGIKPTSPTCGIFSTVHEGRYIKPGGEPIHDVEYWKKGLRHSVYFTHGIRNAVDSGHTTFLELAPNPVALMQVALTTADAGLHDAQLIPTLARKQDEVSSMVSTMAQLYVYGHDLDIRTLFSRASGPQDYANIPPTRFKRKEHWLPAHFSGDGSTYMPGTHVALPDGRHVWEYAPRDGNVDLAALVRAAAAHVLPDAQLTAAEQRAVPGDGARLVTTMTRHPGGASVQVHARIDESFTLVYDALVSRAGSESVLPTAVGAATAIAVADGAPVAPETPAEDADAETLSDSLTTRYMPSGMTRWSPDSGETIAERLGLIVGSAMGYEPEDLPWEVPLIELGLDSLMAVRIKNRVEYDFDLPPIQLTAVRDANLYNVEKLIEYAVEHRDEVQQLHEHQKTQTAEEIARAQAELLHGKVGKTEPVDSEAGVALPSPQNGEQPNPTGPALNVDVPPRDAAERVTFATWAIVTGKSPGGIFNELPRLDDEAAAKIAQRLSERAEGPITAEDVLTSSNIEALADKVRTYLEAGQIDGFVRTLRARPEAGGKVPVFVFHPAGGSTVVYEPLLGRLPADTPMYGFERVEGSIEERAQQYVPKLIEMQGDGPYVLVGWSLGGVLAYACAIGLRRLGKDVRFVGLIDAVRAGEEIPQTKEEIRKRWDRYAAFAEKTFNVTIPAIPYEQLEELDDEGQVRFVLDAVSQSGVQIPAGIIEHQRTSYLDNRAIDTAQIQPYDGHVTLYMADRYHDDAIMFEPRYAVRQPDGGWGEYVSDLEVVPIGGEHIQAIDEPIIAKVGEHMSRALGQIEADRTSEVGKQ

LiHisRS: 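Enzyme assay of histidyl-tRNA synthetase; the read-out is not stated. Target: Histidine-tRNA ligase, Leishmania infantum (UniProt A4I591). Tested at 30 µM. The record gives no direction; compounds that gave an IC50 in retests scored well above the rest, so higher reads as stronger inhibition. The assay is labelled LdHisRS but filed under L. infantum. About 69,000 compounds were tested under these conditions; 0.6% (about 410) showed 50% or more at least once.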
Pks13 thioesterase: 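Polyketide synthase Pks13, Mycobacterium tuberculosis (UniProt I6X8D2). Enzyme assay of the thioesterase domain of polyketide synthase 13; the read-out is not stated. Compounds at 30 µM. Higher reads as stronger inhibition (inferred from which compounds were picked for retests). Of about 67,000 compounds tested this way, about 300 (0.46%) reached 50% or more in at least one test.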

The filed quantity is “Percent Effect” (%).
The controls that fix the scale are not given in the record; negative values are as filed.
This is an unselected part of the compounds tested.
A dash means the value is not listed here; it may have been measured.

| # | compound | LiHisRS | Pks13 thioesterase |
|---|---|---|---|
| 1 | `CCC1CNCc2cc3c(C)ccc(C)c3nc2O1` (stereo not given) | 6.711 | -4.69 |
| 2 | `CC(C)Sc1ccc(C(C)NC(=O)CNS(C)(=O)=O)cc1` (stereo not given) | 15.79 | -13.15 |
| 3 | `CCCNC(=O)c1ncn2c1CN(CC(C)C)S(=O)(=O)c1ccccc1-2` | -2.941 | -42.15 |
| 4 | `COCCN1CCN(C(=O)c2ccc(C)cc2F)[C@H]2CS(=O)(=O)C[C@H]21` | 19.18 | -20.25 |
| 5 | `COCc1nc(C(=O)N2CCCC2c2cc(C)no2)cs1` (stereo not given) | 9.565 | -22.75 |
| 6 | `Cn1cccc1C(=O)NCc1cnc2n1CCN(C(N)=O)CC2` | 25.71 | -27.67 |
| 7 | `OCCNc1cc(N2CCN(Cc3ccccc3)C(CCO)C2)ncn1` (stereo not given) | -17.11 | -23.96 |
| 8 | `Cc1noc(CN2CCOC(CN(C)C)C2)n1` (stereo not given) | 30.77 | -20.31 |
| 9 | `COC(=O)c1ccc(CNC(C)c2ccc(S(C)(=O)=O)cc2)cc1` (stereo not given) | 21.92 | -3.766 |
| 10 | `CCOCC1CN(C(=O)N(C)C)Cc2nnn(CC3CC3)c21` (stereo not given) | 17.09 | -26.34 |
| 11 | `c1coc(-c2[nH]c3ncccc3c2CN2CCCOCC2)c1` | 30.43 | 22.22 |
| 12 | `Fc1ccc(-c2nnc(CN3CCCC3Cn3cncn3)o2)cc1` (stereo not given) | 16.44 | -10.56 |
| 13 | `COc1ccc(-c2nc(CN3CCCC(OC)C3)c(C)o2)c(F)c1` (stereo not given) | 7.692 | 10.34 |
| 14 | `Oc1nc(N2CCCC2)nc2nccc(-c3ccccn3)c12` | 7.5 | -4.204 |
| 15 | `CN(C)c1cnn(CC(=O)N2CCN(Cc3cccs3)CC2)c(=O)c1` | 3.306 | -1.17 |
| 16 | `Cn1c(C(=O)N2CCC(CC(N)=O)CC2)c(Cl)c2ccccc21` | 0 | -14.69 |
| 17 | `Cc1ccc(Cn2cc(Br)c(NS(C)(=O)=O)n2)cc1` | 8.621 | -10.59 |
| 18 | `Cc1cc(CN2CCN(c3ccc4nncn4n3)C(C)C2)no1` (stereo not given) | 27.4 | -10.37 |
| 19 | `O=C(N1CCC(Oc2ccncc2)CC1)C1(c2ccc(F)cc2)CC1` | -41.1 | -27.04 |
| 20 | `O=C(c1[nH]c2ccc(Cl)cc2c1Cl)N1CCC2(CC1)OCCO2` | 4.386 | -2.978 |
| 21 | `c1cnc(N2CC[C@@H]3CN(Cc4ccncc4)CCO[C@@H]3C2)nc1` | 7.895 | 10.7 |
| 22 | `CC1(C)OCC(CNC(=O)c2cnn(-c3cccc(Cl)c3Cl)c2N)O1` (stereo not given) | 17.82 | -19.45 |
| 23 | `CC(C)(C)c1coc([C@@H]2COCCN2Cc2csnn2)n1` | 27.03 | -30.99 |
| 24 | `CCc1n[nH]c(C(=O)NCCn2ccnc2C)c1C` | 17.65 | 0.4685 |
| 25 | `CNC(=O)[C@@H]1CCO[C@@H]2CCN(C3CCOCC3)C[C@@H]21` | 14.29 | 7.42 |
| 26 | `CCNc1ncc(CN2C[C@@H](CN3CCC(CO)CC3)[C@@H](CO)C2)cn1` | 21.21 | -21.68 |
| 27 | `CCN(CCCN1CCOCC1)C(=O)c1cnn(CC)c1` | 15.62 | -22.68 |
| 28 | `COc1cccc2c1N(Cc1noc(C(C)(C)C)n1)CCC2` | 7.563 | -20.69 |
| 29 | `CC(C)N(C)Cc1nnc2n1CCCN(c1ncccn1)C2` | 9.434 | 12.08 |
| 30 | `Cc1nc2c(c(=O)n1C)CCN(C(=O)CCc1ccccc1O)CC2` | 9.091 | -39.26 |
| 31 | `Cc1ccc(CN2CCCC(c3cncc(C)n3)C2)cn1` (stereo not given) | 18.84 | 19.09 |
| 32 | `c1ccc(-n2cnnc2CCCN2CCOCC2)cc1` | 15.04 | -0.9371 |
| 33 | `O=C(Cn1ccnc1)N1CC[C@H](Oc2cccc(F)c2)[C@@H](O)CC1` | 4.196 | -4.942 |
| 34 | `CN(Cc1cccs1)C(=O)CN1CCCC(Cn2cncn2)C1` (stereo not given) | 19.23 | -8.847 |
| 35 | `CN1CCCC(Cc2cncc(C(=O)NCC3CC3)c2)C1` (stereo not given) | 8.333 | -39.26 |
| 36 | `Cc1ccc(NCc2ncc(C(C)(C)C)o2)c(Cl)c1` | 9.091 | 15.03 |
| 37 | `O=C(Nc1nncs1)NC1CCN(Cc2ccccc2)C1` (stereo not given) | -2.778 | -27.17 |
| 38 | `CC(C)N1CCc2c(CNC(=O)c3nccn3C)cncc2C1` | 20 | -1.936 |
| 39 | `CCCc1ccc2oc(C(=O)N3CCC(O)CC3)c(C)c2c1` | 1.639 | 16.97 |
| 40 | `C[C@@H](O)CNC(=O)c1nc(CC(=O)Nc2cccc(C(F)(F)F)c2)no1` | -1.124 | 1.77 |
| 41 | `CCC(NC(=O)c1cnc(N(C)C)nc1C)c1ccncc1` (stereo not given) | 7.843 | 1.868 |
| 42 | `CCN(Cc1cccnc1)CC1(C)Cc2c(N)nc(N)nc2O1` (stereo not given) | 7.246 | -12.14 |
| 43 | `Cn1cc(C(=O)NC2CCCC2)c(-c2cccnc2)n1` | 8.772 | -21.14 |
| 44 | `CCc1cnc(NC2CCc3c(ccc(=O)n3C)C2)nc1` (stereo not given) | 17.17 | -14.79 |
| 45 | `CC(C)Cc1noc(CN(C)c2cc(N(C)C)ncn2)n1` | -1.399 | -25.37 |
| 46 | `O=C(C1CCCO1)N1CCc2ncnc(NC3CCC3)c2CC1` (stereo not given) | 24.77 | -14.03 |
| 47 | `COc1cccc(-c2noc(C3CCN(Cc4ccncc4)C3)n2)c1` (stereo not given) | 20 | 29.99 |
| 48 | `O=C(CCn1ccnc1)N1CC[C@H](Oc2ccc(F)cc2)[C@@H](O)CC1` | 5.594 | -10.51 |
| 49 | `Cc1c(C)n(Cc2ccncc2)c2nc3c(c(N)c12)CCCC3` | 31.58 | -32.59 |
| 50 | `Cn1cc(C2CCCN2C(=O)c2ccc(OCC3CC3)nc2)cn1` (stereo not given) | 13.39 | -4.596 |
| 51 | `Nc1nc2nc(C3CCCN(C(=O)c4cscn4)C3)ccc2s1` (stereo not given) | 11.43 | -12.84 |
| 52 | `O=C(NCc1ccncc1)N1CCSCC1CCO` (stereo not given) | 17.65 | -6.512 |
| 53 | `CC[C@H](N)Cn1nc(-c2cccs2)oc1=O` | 13.89 | -45.09 |
| 54 | `c1ccc(CN2CCc3nnc(CN4CCCCC4)n3CC2)nc1` | 9.804 | -18.56 |
| 55 | `Cc1ccc(C(=O)NCC(O)CN2CCCC2=O)c(C)c1` (stereo not given) | 6.349 | -16.26 |
| 56 | `COCc1cc(N2CCc3onc(-c4cccc(OC)c4)c3C2)ncn1` | 10.53 | 4.148 |
| 57 | `NC(=O)C1(c2cnccn2)CCCN1Cc1ccc(Cl)cc1` (stereo not given) | 12.37 | - |
| 58 | `CC(C)CN(Cc1ccc(C(F)(F)F)nc1)Cc1cnn(C)c1` | 4.167 | 9.041 |
| 59 | `O=c1cc(N2CCCCC2)cnn1Cc1noc(C2CCCO2)n1` (stereo not given) | 15.56 | 5.358 |
| 60 | `COc1ccnc(N2CCC(OCCN3CCCCC3)C2)n1` (stereo not given) | -2.564 | 4.861 |
| 61 | `COC(=O)c1ccc(C(=O)N2CCC(c3nnc(C)s3)CC2)cc1` | 19.35 | -14.24 |
| 62 | `Cc1noc(C)c1C(=O)N(C)C(C)c1ccc(S(C)(=O)=O)cc1` (stereo not given) | 17.05 | -7.385 |

Repeated from the top, 4 entries:

CCC1CNCc2cc3c(C)ccc(C)c3nc2O1 (stereo not given) read LiHisRS: 6.711%; Pks13 thioesterase: -4.69%.
CC(C)Sc1ccc(C(C)NC(=O)CNS(C)(=O)=O)cc1 (stereo not given) read LiHisRS: 15.79%; Pks13 thioesterase: -13.15%.
CCCNC(=O)c1ncn2c1CN(CC(C)C)S(=O)(=O)c1ccccc1-2 read LiHisRS: -2.941%; Pks13 thioesterase: -42.15%.
COCCN1CCN(C(=O)c2ccc(C)cc2F)[C@H]2CS(=O)(=O)C[C@H]21 read LiHisRS: 19.18%; Pks13 thioesterase: -20.25%.